The other results are listed elsewhere or left out. Shown are side measurements of this screen, not its main read-out; they come without a call. Most of these compounds were active or inconclusive in the main read-out, so they are no random draw. Words in brackets tell the shape of the fitted curve; partial curves, single points and poor fits give uncertain potencies.
Assay: qHTS Assay for Modulators of Lamin A Splicing
Details: HeLa LMNA splicing GFP/RFP minigene ratio, 48 h
Outline: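 S3 HeLa stable clones carrying a lamin A-EGFP splicing minigene plus DsRed2 were seeded at 600 cells/well in Opti-MEM with 2% FBS, pin-dosed and incubated 48 h at 37°C. Acumen cytometry (488 nm) gave the GFP/RFP total-intensity ratio.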

[1] = measured here: GFP splicing reporter channel
[2] = measured here: RFP viability control channel

Row | SMILES | AC50 [1] | AC50 [2]
1 | CC1CCC(N2CC(=O)N(Cc3ccc4c(c3)OCO4)C(c3ccc(F)cc3)C2=O)CC1 (stereo not given) | 11.2 µM [rising, single point] | 14.1 µM [rising, single point]
2 | O=C(Nc1cccc([N+](=O)[O-])c1)c1ccc2c(c1)OCCO2 | 15.8 µM [rising, partial curve] | 31.6 µM [rising, single point]
3 | Cc1ccccc1CNC(=O)Cn1nc(C)c2nn(-c3ccc(Cl)cc3)c(C)c2c1=O |  | 0.02 µM [falling, full curve, poor fit]
4 | CCOC(=O)c1sc2ccccc2c1S(=O)(=O)Nc1cc(OC)ccc1OC |  | 11.2 µM [rising, partial curve, poor fit]
5 | O=S(=O)(CCSc1nc2ccccc2o1)c1nc2ccccc2s1 | 6.31 µM [falling, partial curve, poor fit] | 12.6 µM [falling, partial curve]
6 | CC(C)=NOc1cc(NC(=O)CCl)cc([N+](=O)[O-])c1 | 35.5 µM [rising, single point] | 35.5 µM [rising, single point]
7 | CC1(C)C(C=C(Cl)Cl)C1C(=O)N1CCN(c2ccccc2)CC1 (stereo not given) | 3.16 µM [rising, single point] | 12.6 µM [rising, single point]
8 | COc1ccc(S(=O)(=O)N2CCN(Cc3ccccc3)CC2)cc1 |  | 12.6 µM [rising, single point]
9 | CCN(CC)S(=O)(=O)c1ccc(N(C)Cc2cccnc2)nc1 |  | 12.6 µM [rising, partial curve]
10 | Cc1cc(C)cc(C(=O)N2CC(=O)Nc3ccccc32)c1 |  | 2.51 µM [rising, full curve]
11 | Cc1cc(C)c(C(=O)Nc2ccccc2)c(CC(C)(C)C(=O)O)c1 | 25.1 µM [rising, partial curve] | 12.6 µM [rising, partial curve]
12 | Cc1c(C(=O)OCC(=O)c2c(N)n(CC(C)C)c(=O)n(C)c2=O)oc2ccccc12 |  | 11.2 µM [rising, partial curve]
13 | O=C(c1cc2ccccc2oc1=O)N(c1ccccc1)C1C=CS(=O)(=O)C1 (stereo not given) |  | 5.01 µM [rising, partial curve]
14 | Cc1nc(N2CCN(C(=O)c3ccco3)CC2)c2c3c(sc2n1)CCCC3 |  | 22.4 µM [rising, single point]
15 | COCCOC(=O)c1[nH]c2c(c1C)C(=O)CC(c1ccco1)C2 (stereo not given) |  | 5.01 µM [rising, full curve]
16 | CCCCNC(=S)N/N=C/c1sccc1C | 31.6 µM [rising, single point] | 1.26 µM [falling, full curve, poor fit]
17 | CCc1ccc(CNC(=O)C2CCCN(S(=O)(=O)c3ccc4c(ccn4C)c3)C2)cc1 (stereo not given) | 0.0794 µM [falling, full curve, poor fit] | 
18 | COc1ccc(CSCC(=O)Nc2ccc(S(=O)(=O)N3CCCCCC3)cc2)cc1 |  | 35.5 µM [rising, single point]
19 | CCc1cccc(CC)c1NC(=O)C1SC(=Nc2ccccc2C)C(c2nc3ccccc3s2)=C1N (stereo not given) |  | 12.6 µM [rising, partial curve]

2 successive compounds from above:
Row | SMILES | AC50 [1] | AC50 [2]
5 | O=S(=O)(CCSc1nc2ccccc2o1)c1nc2ccccc2s1 | 6.31 µM [falling, partial curve, poor fit] | 12.6 µM [falling, partial curve]
6 | CC(C)=NOc1cc(NC(=O)CCl)cc([N+](=O)[O-])c1 | 35.5 µM [rising, single point] | 35.5 µM [rising, single point]

Remaining list, next part:

Row | SMILES | AC50 [1] | AC50 [2]
20 | Cc1cc(=O)oc2c(C(=O)/C=C\c3cccs3)c(O)ccc12 |  | 1.78 µM [rising, partial curve, poor fit]
21 | Cc1nc2ccccn2c1C(=O)N/N=C/c1cc(C)n(-c2ccc(Br)cc2)c1C | 35.5 µM [rising, single point] | 35.5 µM [rising, single point]
22 | Nc1c2ccccc2nc2ccccc12 | 0.398 µM [falling, full curve, poor fit] | 12.6 µM [falling, partial curve]
23 | Cc1cccc(-n2ncc3c(NC(C)C)ncnc32)c1 |  | 35.5 µM [rising, single point]
24 | c1ccc(C2=Nn3c(nnc3-c3ccncc3)SC2)cc1 | 35.5 µM [rising, single point] | 
25 | CCCCc1ccc(NC(=S)NN2CCOCC2)cc1 |  | 14.1 µM [rising, single point]
26 | Cc1cc(Cl)ccc1NC(=S)N1CCN(Cc2ccc3c(c2)OCO3)CC1 | 1.41 µM [rising, partial curve, poor fit] | 2.51 µM [rising, partial curve]
27 | O=C(Cc1cccc2ccccc12)N/N=C/c1ccc(Sc2cccc3cccnc23)o1 |  | 35.5 µM [rising, single point]
28 | COc1ccc(-n2cnc(N)c2C(=O)c2cccc([N+](=O)[O-])c2)cc1 |  | 31.6 µM [rising, single point]
29 | CC(=Nc1cccc(C)c1)c1sc2ccccc2c1O | 4.47 µM [falling, partial curve] | 5.62 µM [falling, single point]
30 | COc1ccc(CNC(=O)CN2C(=O)CC(c3ccccc3)=Nc3ccccc32)cc1 |  | 10 µM [falling, partial curve]
31 | CCOc1ccc(S(=O)(=O)N2CCN(c3ccc(OC)cc3)CC2)c2cccnc12 | 11.2 µM [rising, partial curve] | 15.8 µM [rising, partial curve]
32 | CCN(CC)S(=O)(=O)c1ccc(N2CCOCC2)c(NCC(=O)Nc2ccc(F)cc2)c1 |  | 0.501 µM [rising, full curve]
33 | COc1cccc(-n2cn[nH]c2=S)c1 | 1.26 µM [rising, full curve] | 
34 | O=C(N/N=C/c1ccc(N2CCOCC2)cc1)C1COc2ccccc2O1 (stereo not given) | 7.08 µM [falling, partial curve, poor fit] | 
35 | CC(CCc1ccccc1)NC(=O)C1CCN(S(=O)(=O)N2CCOCC2)CC1 (stereo not given) | 11.2 µM [rising, single point] | 
36 | Cc1cccc(NC(=O)c2sc3nc(N)c(C#N)cc3c2N)c1 |  | 2.82 µM [rising, single point]
37 | Cc1sc(NC(=O)c2ccco2)c(CN2CCN(Cc3ccccc3)CC2)c1C | 11.2 µM [rising, single point] | 14.1 µM [rising, single point]
